Measured values: article PMC11928426
These are yes or no findings as the source states them, for the method shown. In cells and extracts the contact can be indirect. Some results given as binding are weak or reduced against the parent protein; the word gives no strength. For some assays here: Where a sequence is shown, tags or fusion partners need not be part of it.

Sequences of proteins named here, by UniProt entry; tags and fusion partners are left off.
UniProt P35638: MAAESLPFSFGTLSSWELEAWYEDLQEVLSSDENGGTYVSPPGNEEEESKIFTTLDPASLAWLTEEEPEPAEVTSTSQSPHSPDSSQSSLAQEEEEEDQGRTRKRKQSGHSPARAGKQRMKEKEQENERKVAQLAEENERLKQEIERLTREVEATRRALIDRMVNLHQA

T1: Flag-tagged Nupr1 (UniProt O60356)
T1 sequence: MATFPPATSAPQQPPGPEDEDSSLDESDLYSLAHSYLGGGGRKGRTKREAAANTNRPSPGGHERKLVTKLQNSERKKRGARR


How the values were obtained:
Flag-tagged Nupr1 = molecular target: T1, Flag-tagged Nupr1; test: co-IP; lysate of LECs overexpressing Flag-tagged Nupr1 incubated with anti-Flag IP antibody 2 h at room temperature, Protein A/G magnetic beads, Western blot; cells with or without tunicamycin (TU), and TU promoted the interaction
[1] = molecular target: C/EBP homologous protein (CHOP) (human (endogenous in HLECs)) (UniProt P35638); test: co-IP; lysate of normal LECs incubated with anti-CHOP IP antibody 2 h at room temperature, Protein A/G magnetic beads, Western blot; cells with or without tunicamycin (TU), and TU promoted the interaction

Molecule | binding (Flag-tagged Nupr1) | binding [1]
C/EBP homologous protein (CHOP) (from UniProt P35638 1-169) | binds | –
Nupr1 (protein, UniProt O60356 1-82) MATFPPATSAPQQPPGPEDEDSSLDESDLYSLAHSYLGGGGRKGRTKREAAANTNRPSPGGHERKLVTKLQNSERKKRGARR | – | binds
